Assay results from publication doi:10.1101/2024.05.31.596839.
Positions count from the first letter of the chain named. Results are given in words; binding and its absence hold for the method and conditions named. Some results given as binding are weak or reduced against the parent protein; the word gives no strength.

T1: BoYb (Drosophila) (UniProt Q9VNP5)
T1 sequence: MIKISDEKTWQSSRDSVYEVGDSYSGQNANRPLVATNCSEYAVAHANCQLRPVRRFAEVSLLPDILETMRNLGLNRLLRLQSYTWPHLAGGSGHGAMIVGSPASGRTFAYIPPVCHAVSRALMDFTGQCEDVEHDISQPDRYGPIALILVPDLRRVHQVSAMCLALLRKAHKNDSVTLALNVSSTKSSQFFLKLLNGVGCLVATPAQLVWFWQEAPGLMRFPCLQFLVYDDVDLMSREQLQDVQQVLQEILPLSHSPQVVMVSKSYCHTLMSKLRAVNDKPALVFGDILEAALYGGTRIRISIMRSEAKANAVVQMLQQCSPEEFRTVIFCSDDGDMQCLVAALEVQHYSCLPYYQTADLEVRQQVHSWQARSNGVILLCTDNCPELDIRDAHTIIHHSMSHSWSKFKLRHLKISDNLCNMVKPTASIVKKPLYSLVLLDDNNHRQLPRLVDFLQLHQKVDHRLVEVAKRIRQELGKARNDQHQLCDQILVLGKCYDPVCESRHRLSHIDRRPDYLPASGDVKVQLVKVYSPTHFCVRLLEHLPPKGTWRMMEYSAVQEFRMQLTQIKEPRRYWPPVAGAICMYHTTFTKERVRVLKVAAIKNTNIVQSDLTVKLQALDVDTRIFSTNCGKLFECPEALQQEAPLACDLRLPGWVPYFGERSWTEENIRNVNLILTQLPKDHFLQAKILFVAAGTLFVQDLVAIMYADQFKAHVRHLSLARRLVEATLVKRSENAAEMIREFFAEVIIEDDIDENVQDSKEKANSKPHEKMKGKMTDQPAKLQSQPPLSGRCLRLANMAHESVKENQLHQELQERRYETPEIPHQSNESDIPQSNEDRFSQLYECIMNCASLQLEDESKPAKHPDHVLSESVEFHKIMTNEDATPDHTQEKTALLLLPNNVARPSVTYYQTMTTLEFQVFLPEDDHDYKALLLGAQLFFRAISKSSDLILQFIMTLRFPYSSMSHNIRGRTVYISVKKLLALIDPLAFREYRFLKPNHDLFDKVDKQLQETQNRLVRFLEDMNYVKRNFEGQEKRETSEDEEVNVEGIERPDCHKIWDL

T2: Krimper (Drosophila) (UniProt A1ZAC4)
T2 sequence: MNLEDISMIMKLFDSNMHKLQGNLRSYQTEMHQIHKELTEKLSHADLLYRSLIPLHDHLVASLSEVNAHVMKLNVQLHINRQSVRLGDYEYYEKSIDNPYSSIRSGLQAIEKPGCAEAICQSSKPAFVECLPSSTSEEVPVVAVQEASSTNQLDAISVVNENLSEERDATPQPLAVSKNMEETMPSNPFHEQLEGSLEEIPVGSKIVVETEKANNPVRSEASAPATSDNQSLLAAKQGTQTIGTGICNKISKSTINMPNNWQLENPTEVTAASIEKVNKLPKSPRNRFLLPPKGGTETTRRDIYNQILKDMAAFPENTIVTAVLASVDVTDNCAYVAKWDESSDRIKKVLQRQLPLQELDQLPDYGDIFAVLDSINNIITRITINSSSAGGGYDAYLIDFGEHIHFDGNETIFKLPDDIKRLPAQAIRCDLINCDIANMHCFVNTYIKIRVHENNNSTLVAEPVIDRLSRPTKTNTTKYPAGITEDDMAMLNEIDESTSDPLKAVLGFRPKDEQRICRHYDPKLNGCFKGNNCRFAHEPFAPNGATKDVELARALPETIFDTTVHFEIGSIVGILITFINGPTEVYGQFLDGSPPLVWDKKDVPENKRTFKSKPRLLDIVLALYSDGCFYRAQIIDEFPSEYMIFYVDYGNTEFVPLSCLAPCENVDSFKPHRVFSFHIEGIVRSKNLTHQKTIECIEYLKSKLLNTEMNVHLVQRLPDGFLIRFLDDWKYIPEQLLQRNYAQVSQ

B1: Vret-N RRM_MUT (domain or fragment, UniProt Q9VCU7 1-178)
chain: MESESSQDDWSAFDPMSREYYDQVGNRYTNESGQKLIMEAPLPPKDEKEQRATRQAKYPYLVVPKSSPEVTEKELINFFGRALIKEMEFRRLSRVYFVYFENIASLETAQQRVQREPNLIKCITGRPQKEREITSDPVTSTEPMPTPGPAISATERTPVNHNREVPISTGGQNHPEFF
B2: Vreteno RRM_MUT (full-length) (protein, UniProt Q9VCU7 1-691)
chain: MESESSQDDWSAFDPMSREYYDQVGNRYTNESGQKLIMEAPLPPKDEKEQRATRQAKYPYLVVPKSSPEVTEKELINFFGRALIKEMEFRRLSRVYFVYFENIASLETAQQRVQREPNLIKCITGRPQKEREITSDPVTSTEPMPTPGPAISATERTPVNHNREVPISTGGQNHPEFFRPPLVTKDDYKRGSLLATNDPIQRYLNVKYEFALERHDIYKLKDETRIPQVVLHFRSGRTIPLSTVAVTEEDKTKSLLEDGVSKCVVCQNWTDTFCKLCKMPFCNASCFADVAEQHKQACGKGEILNLDEKVGRKYPKPGLPPSGSKVRITAFEQTNVVYVRSADIQIDIAYYTVLTEVMMLGKDASKLQSTPVCGQIVLYKFEGHMSRAMVLNVDNIKEIYVVFIDFGSVEVTQLERLYECSSYLAGLTCYPVAVKLRGVPRRFVGPNIREVMYELDQSLVFNIKYSSREYDTSKGMQVVVMTEIDINRSLNRLFKTILTPVEPSVSDLGYKEDCLPYIPLHCGKNINVVVMDNTFIQCGFIYCTSIDLAYEVTKMQRDIQEYGEKIAKCATYAPPINELCIAKYEGKWRRGLSVELVGDGYPSILFIDYGNIVPTHVTDIRPYPPQFIFPIMTTQLDLIGVPEKPTDEQIKWLDKNYPIGSVITCSEITFDEETNSYSTRIEKLQEFLSLD
B3: Vreteno RRM_MUT and eTud1_MUT (full-length) (protein, UniProt Q9VCU7 1-691)
chain: B2 chain with Y351E, M358E
B4: Vreteno eTud1_MUT (full-length) (protein, UniProt Q9VCU7 1-691)
chain: B2 chain with E69Y, E74M, E116Y, Y351E, M358E
B5: Vret-C eTud1_MUT (domain or fragment, UniProt Q9VCU7 178-691)
chain: FRPPLVTKDDYKRGSLLATNDPIQRYLNVKYEFALERHDIYKLKDETRIPQVVLHFRSGRTIPLSTVAVTEEDKTKSLLEDGVSKCVVCQNWTDTFCKLCKMPFCNASCFADVAEQHKQACGKGEILNLDEKVGRKYPKPGLPPSGSKVRITAFEQTNVVYVRSADIQIDIAYETVLTEVEMLGKDASKLQSTPVCGQIVLYKFEGHMSRAMVLNVDNIKEIYVVFIDFGSVEVTQLERLYECSSYLAGLTCYPVAVKLRGVPRRFVGPNIREVMYELDQSLVFNIKYSSREYDTSKGMQVVVMTEIDINRSLNRLFKTILTPVEPSVSDLGYKEDCLPYIPLHCGKNINVVVMDNTFIQCGFIYCTSIDLAYEVTKMQRDIQEYGEKIAKCATYAPPINELCIAKYEGKWRRGLSVELVGDGYPSILFIDYGNIVPTHVTDIRPYPPQFIFPIMTTQLDLIGVPEKPTDEQIKWLDKNYPIGSVITCSEITFDEETNSYSTRIEKLQEFLSLD
B6: Ago3Δ1-100 (domain or fragment, UniProt Q7PLK0 101-867)
chain: KGPESEAIASENGLFFPDLIYGSKGSSVNIYCNYLKLTTDESKGVFNYEVRFFPPIDSVHLRIKYLNDHKDKLGGTKTFDGNTLYLPILLPNKMTVFISKAEDVELQIRILYKKKEEMRNCTQLYNILFDRVMKVLNYVKFDRKQFDPSRPKIIPLAKLEVWPGYVTAVDEYKGGLMLCCDVSHRILCQKTVLEMLVDLYQQNVEHYQESARKMLVGNIVLTRYNNRTYKINDICFDQNPTCQFEIKTGCTSYVEYYKQYHNINIKDVNQPLIYSIKKSRGIPAERENLQFCLIPELCYLTGLRDEVRSDNKLMREIATFTRVSPNQRQMALNKFYENVSNTPAAQEILNSWGLSLTNNSNKISGRQMDIEQIYFSKISVSAGRSAEFSKHAVTNEMLKVVHLSKWIIIHLRNYRQAATSLLDNMKQACESLGMNISNPTMISLDHDRIDAYIQALRRNITMNTQMVVCICHNRRDDRYAAIKKICCSEIPIPSQVINAKTLQNDLKIRSVVQKIVLQMNCKLGGSLWTVKIPFKNVMICGIDSYHDPSNRGNSVAAFVASINSSYSQWYSKAVVQTKREEIVNGLSASFEIALKMYRKRNGKLPTNIIIYRDGIGDGQLYTCLNYEIPQFEMVCGNRIKISYIVVQKRINTRIFSGSGIHLENPLPGTVVDQHITKSNMYDFFLVSQLVRQGTVTPTHYVVLRDDCNYGPDIIQKLSYKLCFLYYNWAGTVRIPACCMYAHKLAYLIGQSIQRDVAEALSEKLFYL
B7: Ago3_4RK (protein, UniProt Q7PLK0 1-867)
chain: MSGKGNLLSLFNKNAGNMGKSISSKDHEIDSGLDFNNSESSGERLLSSHNIETDLITTLQHVNISVGKGKAKLIDTLKTDDHTSNQFITSESKENITKKTKGPESEAIASENGLFFPDLIYGSKGSSVNIYCNYLKLTTDESKGVFNYEVRFFPPIDSVHLRIKYLNDHKDKLGGTKTFDGNTLYLPILLPNKMTVFISKAEDVELQIRILYKKKEEMRNCTQLYNILFDRVMKVLNYVKFDRKQFDPSRPKIIPLAKLEVWPGYVTAVDEYKGGLMLCCDVSHRILCQKTVLEMLVDLYQQNVEHYQESARKMLVGNIVLTRYNNRTYKINDICFDQNPTCQFEIKTGCTSYVEYYKQYHNINIKDVNQPLIYSIKKSRGIPAERENLQFCLIPELCYLTGLRDEVRSDNKLMREIATFTRVSPNQRQMALNKFYENVSNTPAAQEILNSWGLSLTNNSNKISGRQMDIEQIYFSKISVSAGRSAEFSKHAVTNEMLKVVHLSKWIIIHLRNYRQAATSLLDNMKQACESLGMNISNPTMISLDHDRIDAYIQALRRNITMNTQMVVCICHNRRDDRYAAIKKICCSEIPIPSQVINAKTLQNDLKIRSVVQKIVLQMNCKLGGSLWTVKIPFKNVMICGIDSYHDPSNRGNSVAAFVASINSSYSQWYSKAVVQTKREEIVNGLSASFEIALKMYRKRNGKLPTNIIIYRDGIGDGQLYTCLNYEIPQFEMVCGNRIKISYIVVQKRINTRIFSGSGIHLENPLPGTVVDQHITKSNMYDFFLVSQLVRQGTVTPTHYVVLRDDCNYGPDIIQKLSYKLCFLYYNWAGTVRIPACCMYAHKLAYLIGQSIQRDVAEALSEKLFYL

The binders below were run against T1, BoYb (Drosophila) (assay: ReLo).

| binding | Binder |
| --- | --- |
| no binding | B1 |
| binds | B2 |
| no binding | B3 |
| binds | B4 |
| no binding | B5 |

These binders were tested against T2, Krimper (Drosophila) (assay: ReLo).

| binding | Binder |
| --- | --- |
| no binding | B6 |
| binds | B7 |
